{"source": "patent US9234176B2", "about": "“Chemically defined production of cardiomyocytes from pluripotent stem cells” (The Board of Trustees of the Leland Stanford Junior …, priority 2012, dated 2016)", "system": "hPSC", "test": "Directed cardiac differentiation of hPSC in minimal media (Example 1)", "assay_type": "cell-based, human", "settings": "small molecule inhibitors at the later stage of differentiation", "protocol": "Directed Cardiac Differentiation Procedure. (volumes provided are for a T25 flask; adjust volumes proportionately for larger vessels) Day 0 (day 4 after passage): Aspirate medium, and replace with 5 mL of minimal media (CDM3, D3, D4, or D11) supplemented with 6 uM of CHIR-99021 (CHIR-99021 can be used at 4-15 μM). Place flasks in a regular ambient O2, 5% CO2 incubator. Day 2: 48 h. Aspirate media and replace with 5 mL of minimal media (CDM3, D3, D4, or D11). Day 3: 72 h. Aspirate media and replace with 5 mL of minimal media (CDM3, D3, D4, or D11) supplemented with 0.5 uM C59 (C59 may be used at 0.5-5 μM). Day 5: Aspirate media and replace with 5 mL of minimal media (CDM3, D3, D4, or D11). From day 5 onwards media should be changed every 2 days with minimal media (CDM3, D3, D4, or D11).\nFrom day 0 to day 2 (d0-d2), minimal media (CDM3, D3, D4, or D11) was supplemented with the Wnt signaling agonist CHIR-99021 (6-10 uM 48 h, d0-d2), which triggers canonical Wnt/β-Catenin signaling that leads to the subsequent up-regulation of BMP4 and activin A. Media is then exchanged to non-supplemented minimal media (CDM3, D3, D4, or D11) for 1 day followed by contact with a Wnt signaling antagonist (e.g., C59: 0.5-5 uM, 48 h, d3-d5) for 2 days. At day 5, 7, and 9 minimal media (CDM3, D3, D4, or D11) is exchanged for fresh media, and contraction begins between d7 and d10. […]", "note": "At least one compound was matched to its structure with a doubt left."}
{"compound": "c1cc(-c2cnn3cc(-c4ccc(OCCN5CCCCC5)cc4)cnc23)ccn1", "note": "[dorsomorphin]", "values": [{"measurement": "further enhancement of differentiation by pathway inhibitors", "result": "did not further enhance the differentiation"}]}
